Laboratory results taken from publication PMC11006392.

The chains behind the UniProt entries cited, without tags or fusion partners. Where a name states a change or a piece, a line headed by the entry shows the natural chain unless it says otherwise.
UniProt Q6GPL0: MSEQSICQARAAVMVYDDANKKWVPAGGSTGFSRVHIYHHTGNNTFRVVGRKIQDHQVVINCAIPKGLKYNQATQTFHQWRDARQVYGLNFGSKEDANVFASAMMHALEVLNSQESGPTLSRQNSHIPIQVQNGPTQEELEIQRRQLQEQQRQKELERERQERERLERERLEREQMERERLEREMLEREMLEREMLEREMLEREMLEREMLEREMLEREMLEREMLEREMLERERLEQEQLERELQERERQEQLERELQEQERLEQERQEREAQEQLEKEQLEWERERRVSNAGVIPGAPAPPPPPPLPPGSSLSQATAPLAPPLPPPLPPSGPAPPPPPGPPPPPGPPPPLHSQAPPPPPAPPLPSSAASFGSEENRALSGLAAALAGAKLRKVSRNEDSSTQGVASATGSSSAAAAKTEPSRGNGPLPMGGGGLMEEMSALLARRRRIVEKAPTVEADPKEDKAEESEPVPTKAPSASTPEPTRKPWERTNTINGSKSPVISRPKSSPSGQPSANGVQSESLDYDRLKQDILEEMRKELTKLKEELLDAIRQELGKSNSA

Target: T1, SNAP-tagged Xenopus tropicalis TOCA-1 (Xenopus tropicalis) (UniProt Q6GUF4)
T1 sequence: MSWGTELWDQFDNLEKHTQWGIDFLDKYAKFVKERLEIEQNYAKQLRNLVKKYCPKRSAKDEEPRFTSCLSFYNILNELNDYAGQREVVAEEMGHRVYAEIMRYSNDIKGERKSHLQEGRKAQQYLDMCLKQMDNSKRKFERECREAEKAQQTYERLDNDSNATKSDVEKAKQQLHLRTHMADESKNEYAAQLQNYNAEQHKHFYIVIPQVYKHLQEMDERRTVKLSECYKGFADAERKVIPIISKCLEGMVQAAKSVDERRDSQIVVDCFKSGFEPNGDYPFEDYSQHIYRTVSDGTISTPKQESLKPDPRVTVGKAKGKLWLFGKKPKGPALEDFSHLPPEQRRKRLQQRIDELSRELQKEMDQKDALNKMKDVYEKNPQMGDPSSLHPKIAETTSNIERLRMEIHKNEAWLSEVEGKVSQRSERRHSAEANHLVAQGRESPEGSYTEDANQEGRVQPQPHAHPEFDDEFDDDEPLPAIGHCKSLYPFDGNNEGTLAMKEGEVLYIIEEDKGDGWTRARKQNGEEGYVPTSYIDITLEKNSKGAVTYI
Experiment: pull-down; SNAP–TOCA-1 or SNAP alone coupled to SNAP-Capture beads; 100 µl of 1 µM purified Ena or VASP with 10 µl coupled beads, 1 h at 4°C; western blot; both purified

Substance | binding
purified recombinant Xenopus Ena-ΔPRR | binds
purified recombinant Xenopus VASP M1 (ΔPRR with P234G) | binds
purified recombinant Xenopus VASP-ΔPRR | binds
purified recombinant wild-type Xenopus Ena (from UniProt Q6GPL0) | binds
purified recombinant wild-type Xenopus VASP | binds

No constants are given. Whether binding was seen depends on the method and setting. A result given as binding can be weak or reduced; the word gives no strength. Tags and fused reporters may be left off the sequences shown.
